Inconclusive means that the source gave no clear call. Such entries were picked first, then a sample of the others. Potencies of inconclusive entries are doubtful fits and often do not repeat. Calls of active or inactive are those of the source. Calls follow the shape of the dose curve; as a rule, active = well fitted cell-killing curve with a large enough effect; inconclusive = small, poorly fitted or top-dose-only effect, or effect the other way, or another doubt; inactive = no such curve, though single readings can be large or run the other way. Numbered stars: 1 amine (or outer) side, 2 acyl side, 3 side chain; on linkers, the order of the positions; unused ones are H or OH. Bridge positions count the residues as written; N and C are the ends. Square brackets hold non-standard residues; d marks the D form. Peptide text beside a SMILES is read from it. I, II: the chains in the order shown. ξ: configuration not given here. Actinocin(9to1) = Cc1c2oc3c(C)ccc(C(=O)[*:1])c3nc-2c(C(=O)[*:2])c(N)c1=O; ξNMeV = CNC(C(=O)O)C(C)C; ξV = CC(C)C(N)C(=O)O; Sar = CNCC(=O)O
Assay: Identifying Small Molecule Inhibitors of Pancreatic Cancer Stem Cells (Panc1, Adherent) (AID 1259362);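 as to viability, % of control: compound exposure lasted 48 h before the viability read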
Details: Potency: viability unless noted; viability, % of control: at 46.1 µM (top of the series) unless noted
Excerpt: Progenitor-like cancer cells, often referred to as cancer stem cells (CSC), are believed to be the drivers of therapeutic resistance and rapid recurrence. CSCs are postulated to reside in specific niches characterized by low oxygen tension, limited nutrient supply, and high redox load. Selectively targeting CSC, alone or in combination with cytotoxic agents, as a means to produce durable remissions is an appealing concept. Modeling these cells in in vitro setting is an important step in finding new therapies and/or targets. Multiple reports highlight that forcing cells in culture into 3-dimensionaly architectures (spheroids) re-establishes key progenitor-like transcriptional signatures. Pancreatic cancer is among the diseases with the most dismal outlook which is driven, largely, by recurance following front-line therapies. […] In hopes of deriving new insight into the targeting of these pancreatic CSCs we examined three established pancreatic cancer cell lines in cytotoxicity assays versus a collection of approved and investigational drugs. Importantly, we screened these lines as traditional monolayer (2D) and spheroid (3D) formats to gain an appreciation of agents with differential activity.
Multicellular tumor spheroids from Panc1, MiaPaCa-2, and the primary low-passage tissue culture line SB.06 were seeded in stem cell media (SCM) in nonadherent 6-well plates coated with hydrogel (Corning Life Sciences, Chelmsford, Mass) and pancreatic spheres generated for 14 days before screening. Cells were seeded into 1536-well solid-bottom white tissue culture treated Greiner Bio One Plates (789173-F) using a MultiDrop Combi (Thermofisher Scientific) dispenser and a small sterile cassette. One column was media alone to be used as a :"no cells" control. The plates were then covered with sterilized stainless steel gasketed lids from Kalypsys. After allowing cells to attach for 4 hours, 23 nL of test compound or control (negative control DMSO and positive control 9.2 uM Bortezomib-final) were added from a 1536-well polypropylene compound source plate to each well using a 1536 head pin tool from Kalypsys. Cells were then incubated for 48 hours at 37C, 95% relative humidity and 5% CO2. After 48 hours, plates were removed from the incubator and 3 uL of CellTiter-Glo (Promega) was added using an Aurora Flying Reagent Dispenser Bioraptor. Plates were incubated at room temperature for 10 minutes prior to reading the luminescence on the Viewlux (PerkinElmer). The relative luciferase units are used to calculate the percent activity using the activity of DMSO in the cells and no cells columns for normalization of no inhibition and full inhibition respectively.
Potency is read from the fitted curve at half-maximal effect.

Question: With Cc1cnc(-c2cnc(NCCNc3ccc(C#N)cn3)nc2-c2ccc(Cl)cc2Cl)[nH]1 as the compound, how does the viability, % of control read?
Answer: Its viability, % of control is inconclusive: 93.2%.

Question: With CC[C@@H]1C(=O)N(C)c2cnc(Nc3ccc(C(=O)NC4CCC(N5CCN(CC6CC6)CC5)CC4)cc3OC)nc2N1C(C)C (stereo not given in full) as the compound, how does the Potency read?
Answer: The Potency was active: 0.0105 µM.

Question: Which Potency does the source give for O=C(c1ccc(Nc2nccc(-c3cc4ccccc4s3)n2)cc1)N1CCC(N2CCCC2)CC1 here?
Answer: The Potency was inconclusive: 23.5 µM [cytotoxic, partial curve, poor fit].

Question: For CNC(=O)c1cc(Oc2ccc(NC(=O)Nc3cc(C(C)(C)C)nn3-c3ccc4ncccc4c3)c(F)c2)ccn1, which Potency is on record?
Answer: Its Potency is inconclusive: 3.32 µM [cytotoxic, full curve, poor fit].

Question: Which Potency does the source give for Cc1cc(Nc2cc(NC(=O)c3c(Cl)cccc3Cl)ccn2)nc(N)n1 here?
Answer: The Potency was inconclusive: 26.4 µM [cytotoxic, single point].

Question: For Oc1cn2c(n1)Nc1ccc(Cl)c(Cl)c1C2, which “viability, % of control” value is on record?
Answer: Its value is inactive: 107%.

Question: With CCN(c1ccccc1)c1cc(NC)[n+](C)c(C)n1 as the compound, how does the “viability, % of control” value read?
Answer: Its value is inactive: 101%.

Question: Which Potency does the source give for Cc1c(CN2CCN(C(=O)C(C)C)CC2)sc2c(N3CCOCC3)nc(-c3cnc(N)nc3)nc12 here?
Answer: Its Potency is inconclusive: 0.0743 µM [cytotoxic, full curve].

Question: With COc1cc(C(C)C)c2c(c1)S(=O)(=O)N(COc1cc(=O)n3cccc(OCCN4CCCCC4)c3n1)C2=O as the compound, how does the Potency read?
Answer: Its Potency is inconclusive: 37.2 µM [cytotoxic, single point].

Question: For COc1cc(=C2C=c3ccccc3=N2)[nH]c1=Cc1[nH]c(C)cc1C, which Potency is on record?
Answer: Its Potency is inconclusive: 0.526 µM [cytotoxic, full curve].

Question: Which viability, % of control does the source give for Cc1ccc2c(c1)C(=O)[C@@]1(O)CCN(c3ccccc3)C1=N2 here?
Answer: The viability, % of control was inconclusive: 100%.

Question: With Cn1c(=O)n(-c2ccc(C(C)(C)C#N)cc2)c2c3cc(-c4cnc5ccccc5c4)ccc3ncc21 as the compound, how does the Potency read?
Answer: Its Potency is inconclusive: 0.0042 µM [cytotoxic, full curve, poor fit].

Question: Which “viability, % of control” value does the source give for C/C(=C\C(=O)Nc1ccccc1C(=O)O)c1ccc2ccccc2c1 here?
Answer: The value was inactive: 89.8%.

Question: With O=C(O)c1ccc(-c2c[nH]c3ccc(-c4ccccc4)cc23)cc1C1CCCC1 as the compound, how does the “viability, % of control” value read?
Answer: Its value is inactive: 80%.

Question: Which Potency does the source give for NC1(c2ccc(-c3nc4ccn5c(=O)[nH]nc5c4cc3-c3ccccc3)cc2)CCC1 here?
Answer: Its Potency is active: 20.9 µM.

Question: With CC(C)OC(=O)C1=CN(C(=O)c2ccc(F)c(F)c2)CC(C)(C)c2c1[nH]c1ccccc21 as the compound, how does the Potency read?
Answer: The Potency was inconclusive: 0.418 µM [cytotoxic, full curve, poor fit].

Question: For CC(C)(C)c1cnc(CSc2cnc(NC(=O)C3CCNCC3)s2)o1, which Potency is on record?
Answer: Its Potency is inconclusive: 0.166 µM [cytotoxic, full curve, poor fit].

Question: For COc1ccc(C2=N[C@H](c3ccc(Cl)cc3)[C@H](c3ccc(Cl)cc3)N2C(=O)N2CCNC(=O)C2)c(OC(C)C)c1, which “viability, % of control” value is on record?
Answer: Its value is inactive: 77.6%.

Question: With CC1(C)CCC(c2ccc(Cl)cc2)=C(CN2CCN(c3ccc(C(=O)NS(=O)(=O)c4ccc(N[C@H](CCN5CCOCC5)CSc5ccccc5)c(S(=O)(=O)C(F)(F)F)c4)cc3)CC2)C1 as the compound, how does the Potency read?
Answer: The Potency was inconclusive: 13.2 µM [cytotoxic, partial curve].

Question: Which Potency does the source give for Cc1c2oc3c(C)ccc(C(=O)N[C@@H]4C(=O)NC(C(C)C)C(=O)N5CCC[C@H]5C(=O)N(C)CC(=O)N(C)C(C(C)C)C(=O)O[C@@H]4C)c3nc-2c(C(=O)N[C@@H]2C(=O)NC(C(C)C)C(=O)N3CCC[C@H]3C(=O)N(C)CC(=O)N(C)C(C(C)C)C(=O)O[C@@H]2C)c(N)c1=O (stereo not given in full) (I: T[ξV]P[Sar][ξNMeV] / II: T[ξV]P[Sar][ξNMeV]; ester I:1-I:C, II:1-II:C; linker I:N-II:N via Actinocin(9to1)) here?
Answer: Its Potency is active: 0.0132 µM.

Question: Which Potency does the source give for Cn1cncc1[C@@](N)(c1ccc(Cl)cc1)c1ccc2c(c1)c(-c1cccc(Cl)c1)cc(=O)n2C here?
Answer: The Potency was inconclusive: 26.4 µM [cytotoxic, single point].

Question: With CC(C)c1onc(-c2c(Cl)cccc2Cl)c1COc1ccc(/C=C/c2cccc(C(=O)O)c2)c(Cl)c1 as the compound, how does the “viability, % of control” value read?
Answer: Its value is inactive: 100%.

Question: For O=C(O)c1ccc2cc(-c3ccc(O)c(C45CC6CC(CC(C6)C4)C5)c3)ccc2c1, which Potency is on record?
Answer: Its Potency is inconclusive: 1.32 µM [cytotoxic, full curve].

Question: For O=S(=O)(N=Cc1c(O)ccc2ccccc12)c1cccs1, which “viability, % of control” value is on record?
Answer: The value was inactive: 94.4%.

Question: For CC(NC(=O)Cc1cc(F)cc(F)c1)C(=O)NC(C(=O)OC(C)(C)C)c1ccccc1 (stereo not given), which “viability, % of control” value is on record?
Answer: Its value is inactive: 135%.

Question: With O=c1[nH]nc(Sc2ncc([N+](=O)[O-])s2)n1-c1ccc2c(c1)OCCO2 as the compound, how does the Potency read?
Answer: The Potency was inconclusive: 37.2 µM [cytotoxic, single point].

Question: For Cn1c(Nc2ccc(C(F)(F)F)cc2)nc2cc(Oc3ccnc(-c4ncc(C(F)(F)F)[nH]4)c3)ccc21, which Potency is on record?
Answer: The Potency was inconclusive: 13.2 µM [cytotoxic, partial curve, poor fit].

Question: For COc1cc(C)c(Sc2cnc(NC(=O)c3ccc(CNC(C)C(C)(C)C)cc3)s2)cc1C(=O)N1CCN(C(C)=O)CC1 (stereo not given), which Potency is on record?
Answer: Its Potency is inconclusive: 29.6 µM [cytotoxic, single point].

Question: Which Potency does the source give for Nc1ccn([C@@H]2O[C@H](CO)[C@@H](O)C2(F)F)c(=O)n1 here?
Answer: The Potency was inconclusive: 0.481 µM [cytotoxic, full curve].

Question: Which Potency does the source give for Cc1[nH]c2ccccc2c1CCNCc1ccc(C=CC(=O)NO)cc1 here?
Answer: The Potency was active: 0.148 µM.

Question: Which “viability, % of control” value does the source give for O=c1cc(C2=CC=CC3Sc4ccccc4SC23)oc(N2CCOCC2)c1 (stereo not given) here?
Answer: Its value is inactive: 106%.

Question: Which Potency does the source give for COc1cc2c(Oc3ccc(-c4cnc(Nc5ccc(F)cc5)n(C)c4=O)cc3F)ccnc2cc1OCCCN1CCOCC1 here?
Answer: The Potency was inconclusive: 2.09 µM [cytotoxic, full curve].

Question: For CC1(C)CNc2cc(NC(=O)c3cccnc3NCc3ccncc3)ccc21, which Potency is on record?
Answer: Its Potency is inconclusive: 0.0053 µM [rising, full curve, poor fit].

Question: With C[C@@]12O[C@@H](C[C@]1(O)CO)n1c3ccccc3c3c4c(c5c6ccccc6n2c5c31)CNC4=O as the compound, how does the Potency read?
Answer: The Potency was inconclusive: 26.4 µM [cytotoxic, single point].

Question: Which Potency does the source give for CCC(=C(c1ccccc1)c1ccc(OCCN(C)C)cc1)c1ccccc1 here?
Answer: The Potency was inconclusive: 3.32 µM [cytotoxic, partial curve, poor fit].

Question: For N#Cc1ccc(COC[C@H]2O[C@@H](n3c(NCc4ccc(Cl)c(Cl)c4)nc4c(N)ncnc43)[C@@H](O)[C@@H]2O)cc1, which Potency is on record?
Answer: Its Potency is inconclusive: 37.2 µM [cytotoxic, single point].

Question: For Cc1nnc(C(C)C)n1C1CC2CCC(C1)N2CC[C@H](NC(=O)C1CCC(F)(F)CC1)c1ccccc1 (stereo not given in full), which viability, % of control is on record?
Answer: The viability, % of control was inconclusive: 126%.

Question: With CCC1(Cc2ccc(N)cc2)CCC(=O)NC1=O (stereo not given) as the compound, how does the viability, % of control read?
Answer: Its viability, % of control is inconclusive: 111% [at 92.2 µM].

Question: For Cc1cccc(C=NNc2cc(N3CCOCC3)nc(OCCc3ccccn3)n2)c1, which Potency is on record?
Answer: The Potency was inconclusive: 23.5 µM [cytotoxic, partial curve].

Question: With O=C(O)CC/C=C\CC[C@H]1[C@@H](N2CCCCC2)[C@@H](O)C[C@@H]1OCc1ccc(-c2ccccc2)cc1 as the compound, how does the Potency read?
Answer: Its Potency is inconclusive: 0.0235 µM [rising, full curve, poor fit].

From PubChem BioAssay (NCATS)
